Data published in the supplement of paper PMC10849652.
The list shows a part of the results.

Sequences of proteins named here, by UniProt entry; tags and fusion partners are left off. A change or cut given only in a name is not applied to a line headed by its entry.
UniProt Q9BVL2: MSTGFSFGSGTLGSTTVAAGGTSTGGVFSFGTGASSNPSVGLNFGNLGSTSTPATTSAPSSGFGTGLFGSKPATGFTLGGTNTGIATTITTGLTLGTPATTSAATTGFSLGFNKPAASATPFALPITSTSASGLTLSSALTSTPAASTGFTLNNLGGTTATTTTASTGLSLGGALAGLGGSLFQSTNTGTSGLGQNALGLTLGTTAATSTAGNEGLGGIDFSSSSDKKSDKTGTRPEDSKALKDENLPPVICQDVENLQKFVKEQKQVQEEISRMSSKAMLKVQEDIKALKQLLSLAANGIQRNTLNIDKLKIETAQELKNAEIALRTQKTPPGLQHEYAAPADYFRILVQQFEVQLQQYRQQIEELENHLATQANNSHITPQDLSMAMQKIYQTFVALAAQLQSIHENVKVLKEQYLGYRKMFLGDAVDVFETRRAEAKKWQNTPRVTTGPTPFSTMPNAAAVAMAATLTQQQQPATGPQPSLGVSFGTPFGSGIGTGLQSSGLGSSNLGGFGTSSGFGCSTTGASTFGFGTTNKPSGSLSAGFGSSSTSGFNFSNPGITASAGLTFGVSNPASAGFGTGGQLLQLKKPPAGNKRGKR
UniProt Q99567: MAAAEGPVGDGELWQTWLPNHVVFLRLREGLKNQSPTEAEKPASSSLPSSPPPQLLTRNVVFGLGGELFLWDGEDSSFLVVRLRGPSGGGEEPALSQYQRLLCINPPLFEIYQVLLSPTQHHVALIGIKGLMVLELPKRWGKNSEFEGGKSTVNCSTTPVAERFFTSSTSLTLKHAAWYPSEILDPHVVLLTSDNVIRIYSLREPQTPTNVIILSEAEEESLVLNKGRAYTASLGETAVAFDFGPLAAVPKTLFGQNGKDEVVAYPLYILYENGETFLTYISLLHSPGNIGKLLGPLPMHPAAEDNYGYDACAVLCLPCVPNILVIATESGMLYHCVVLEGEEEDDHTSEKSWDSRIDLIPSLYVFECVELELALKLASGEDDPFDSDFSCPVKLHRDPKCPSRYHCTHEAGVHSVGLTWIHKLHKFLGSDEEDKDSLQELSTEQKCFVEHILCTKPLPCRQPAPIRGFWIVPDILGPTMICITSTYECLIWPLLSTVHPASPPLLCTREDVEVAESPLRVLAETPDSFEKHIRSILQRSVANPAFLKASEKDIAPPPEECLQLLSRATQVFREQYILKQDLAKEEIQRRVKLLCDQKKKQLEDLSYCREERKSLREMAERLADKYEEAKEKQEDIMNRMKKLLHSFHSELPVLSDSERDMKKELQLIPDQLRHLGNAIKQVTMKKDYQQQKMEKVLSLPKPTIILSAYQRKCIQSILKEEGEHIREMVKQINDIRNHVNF
UniProt Q9BY11: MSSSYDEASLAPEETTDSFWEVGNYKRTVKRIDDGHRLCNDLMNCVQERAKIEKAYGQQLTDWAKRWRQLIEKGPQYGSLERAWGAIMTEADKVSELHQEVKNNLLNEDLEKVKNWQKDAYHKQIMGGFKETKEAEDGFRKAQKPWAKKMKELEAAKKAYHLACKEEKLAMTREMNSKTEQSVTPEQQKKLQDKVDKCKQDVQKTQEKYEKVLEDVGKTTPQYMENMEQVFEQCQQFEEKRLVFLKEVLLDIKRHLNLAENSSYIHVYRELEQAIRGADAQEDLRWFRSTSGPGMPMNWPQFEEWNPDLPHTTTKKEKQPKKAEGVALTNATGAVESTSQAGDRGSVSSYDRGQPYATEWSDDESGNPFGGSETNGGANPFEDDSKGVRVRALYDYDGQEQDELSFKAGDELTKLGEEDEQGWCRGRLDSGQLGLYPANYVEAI
UniProt Q99571: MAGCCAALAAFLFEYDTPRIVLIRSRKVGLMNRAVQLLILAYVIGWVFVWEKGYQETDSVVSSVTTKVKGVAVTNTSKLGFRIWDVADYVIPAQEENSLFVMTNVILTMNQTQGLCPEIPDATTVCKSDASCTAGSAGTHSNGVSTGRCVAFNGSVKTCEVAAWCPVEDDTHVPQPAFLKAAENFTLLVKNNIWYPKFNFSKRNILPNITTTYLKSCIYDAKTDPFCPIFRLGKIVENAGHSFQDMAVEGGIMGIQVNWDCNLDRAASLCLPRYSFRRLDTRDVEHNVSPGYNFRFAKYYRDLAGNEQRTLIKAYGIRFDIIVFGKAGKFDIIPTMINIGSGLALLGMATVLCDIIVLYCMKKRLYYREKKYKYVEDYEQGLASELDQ
UniProt O60890: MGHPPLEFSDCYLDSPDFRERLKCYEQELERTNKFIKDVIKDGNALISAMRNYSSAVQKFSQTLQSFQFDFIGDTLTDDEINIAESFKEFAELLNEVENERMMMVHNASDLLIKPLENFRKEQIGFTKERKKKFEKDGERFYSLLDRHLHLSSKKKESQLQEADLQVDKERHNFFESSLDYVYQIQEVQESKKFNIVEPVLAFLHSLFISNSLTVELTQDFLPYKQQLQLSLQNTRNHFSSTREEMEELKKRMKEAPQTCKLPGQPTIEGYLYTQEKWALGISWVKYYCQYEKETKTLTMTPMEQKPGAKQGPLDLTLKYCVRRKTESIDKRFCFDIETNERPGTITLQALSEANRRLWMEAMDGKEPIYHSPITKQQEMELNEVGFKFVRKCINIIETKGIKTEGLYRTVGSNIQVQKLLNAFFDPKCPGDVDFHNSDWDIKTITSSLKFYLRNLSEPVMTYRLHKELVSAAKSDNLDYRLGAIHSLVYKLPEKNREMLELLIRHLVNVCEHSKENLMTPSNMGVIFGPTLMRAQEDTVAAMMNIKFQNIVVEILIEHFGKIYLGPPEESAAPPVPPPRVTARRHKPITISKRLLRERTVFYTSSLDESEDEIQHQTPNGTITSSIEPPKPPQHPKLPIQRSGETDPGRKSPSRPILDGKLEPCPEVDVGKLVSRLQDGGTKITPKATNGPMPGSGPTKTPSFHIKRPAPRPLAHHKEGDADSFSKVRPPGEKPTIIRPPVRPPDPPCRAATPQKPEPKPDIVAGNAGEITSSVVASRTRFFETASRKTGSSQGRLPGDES
UniProt Q9UKK6: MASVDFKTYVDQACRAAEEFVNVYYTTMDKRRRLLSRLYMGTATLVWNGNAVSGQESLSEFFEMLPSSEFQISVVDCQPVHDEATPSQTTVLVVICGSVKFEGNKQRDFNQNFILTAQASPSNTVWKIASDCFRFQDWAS
UniProt Q96FW1, whole entry, looked up: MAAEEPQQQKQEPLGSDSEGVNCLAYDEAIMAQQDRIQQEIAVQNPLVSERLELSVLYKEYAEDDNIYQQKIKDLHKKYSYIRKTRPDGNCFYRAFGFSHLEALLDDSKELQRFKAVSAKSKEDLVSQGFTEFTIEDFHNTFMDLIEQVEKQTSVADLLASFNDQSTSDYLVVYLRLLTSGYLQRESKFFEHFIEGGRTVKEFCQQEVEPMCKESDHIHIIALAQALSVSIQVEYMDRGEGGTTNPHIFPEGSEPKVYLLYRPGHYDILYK
UniProt Q32P28: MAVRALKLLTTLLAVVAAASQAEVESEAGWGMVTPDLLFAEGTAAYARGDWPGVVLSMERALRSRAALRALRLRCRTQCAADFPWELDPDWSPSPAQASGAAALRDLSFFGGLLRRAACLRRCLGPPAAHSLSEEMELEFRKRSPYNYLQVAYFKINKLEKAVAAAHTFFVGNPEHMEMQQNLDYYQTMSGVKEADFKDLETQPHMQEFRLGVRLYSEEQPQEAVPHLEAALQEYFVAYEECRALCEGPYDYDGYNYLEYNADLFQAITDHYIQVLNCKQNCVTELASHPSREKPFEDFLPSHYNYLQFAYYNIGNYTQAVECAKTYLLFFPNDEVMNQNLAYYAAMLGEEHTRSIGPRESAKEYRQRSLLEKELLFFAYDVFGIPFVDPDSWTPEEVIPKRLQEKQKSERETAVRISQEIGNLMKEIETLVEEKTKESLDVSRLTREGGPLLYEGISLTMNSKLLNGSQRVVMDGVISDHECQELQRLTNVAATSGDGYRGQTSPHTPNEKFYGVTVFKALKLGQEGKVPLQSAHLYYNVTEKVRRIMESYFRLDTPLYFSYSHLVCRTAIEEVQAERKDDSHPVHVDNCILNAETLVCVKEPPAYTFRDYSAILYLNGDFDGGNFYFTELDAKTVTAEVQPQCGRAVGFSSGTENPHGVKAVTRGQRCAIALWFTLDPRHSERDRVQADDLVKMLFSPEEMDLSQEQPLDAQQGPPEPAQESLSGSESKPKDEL
UniProt Q96E22: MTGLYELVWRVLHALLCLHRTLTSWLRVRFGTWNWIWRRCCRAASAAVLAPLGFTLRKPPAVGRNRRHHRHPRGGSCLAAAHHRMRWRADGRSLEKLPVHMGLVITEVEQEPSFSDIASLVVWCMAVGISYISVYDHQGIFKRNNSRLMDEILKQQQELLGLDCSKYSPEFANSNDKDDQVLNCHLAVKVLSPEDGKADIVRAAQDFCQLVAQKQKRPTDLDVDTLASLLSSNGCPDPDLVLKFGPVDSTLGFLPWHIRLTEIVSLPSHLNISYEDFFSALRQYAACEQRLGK
UniProt Q9Y530: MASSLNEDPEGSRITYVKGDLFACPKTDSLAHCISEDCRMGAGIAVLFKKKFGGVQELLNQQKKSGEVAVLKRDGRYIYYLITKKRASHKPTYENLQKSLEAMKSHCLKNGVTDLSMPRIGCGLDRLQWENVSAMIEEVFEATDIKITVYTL
UniProt O60829: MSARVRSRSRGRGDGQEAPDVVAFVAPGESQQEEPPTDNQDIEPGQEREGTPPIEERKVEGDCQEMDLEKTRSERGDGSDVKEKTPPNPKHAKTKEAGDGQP
UniProt Q9BPZ3: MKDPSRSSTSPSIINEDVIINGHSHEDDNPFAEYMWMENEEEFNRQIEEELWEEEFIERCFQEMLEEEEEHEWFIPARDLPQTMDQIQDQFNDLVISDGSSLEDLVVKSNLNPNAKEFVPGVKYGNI
UniProt Q9BZ23: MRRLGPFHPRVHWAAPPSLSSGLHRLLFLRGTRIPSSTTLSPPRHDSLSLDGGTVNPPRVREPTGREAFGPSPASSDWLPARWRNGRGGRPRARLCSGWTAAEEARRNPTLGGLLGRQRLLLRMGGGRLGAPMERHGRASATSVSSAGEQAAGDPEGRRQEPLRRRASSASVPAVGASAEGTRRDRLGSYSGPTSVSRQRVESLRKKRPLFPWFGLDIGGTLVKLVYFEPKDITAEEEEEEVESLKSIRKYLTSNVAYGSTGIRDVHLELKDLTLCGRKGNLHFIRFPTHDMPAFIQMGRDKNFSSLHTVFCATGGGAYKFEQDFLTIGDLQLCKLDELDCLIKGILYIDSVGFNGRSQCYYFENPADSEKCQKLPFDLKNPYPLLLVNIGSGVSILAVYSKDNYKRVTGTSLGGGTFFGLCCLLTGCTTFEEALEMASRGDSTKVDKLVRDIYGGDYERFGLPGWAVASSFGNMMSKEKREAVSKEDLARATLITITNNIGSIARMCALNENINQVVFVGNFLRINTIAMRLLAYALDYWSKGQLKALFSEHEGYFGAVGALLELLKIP
UniProt Q96D31, whole entry, looked up: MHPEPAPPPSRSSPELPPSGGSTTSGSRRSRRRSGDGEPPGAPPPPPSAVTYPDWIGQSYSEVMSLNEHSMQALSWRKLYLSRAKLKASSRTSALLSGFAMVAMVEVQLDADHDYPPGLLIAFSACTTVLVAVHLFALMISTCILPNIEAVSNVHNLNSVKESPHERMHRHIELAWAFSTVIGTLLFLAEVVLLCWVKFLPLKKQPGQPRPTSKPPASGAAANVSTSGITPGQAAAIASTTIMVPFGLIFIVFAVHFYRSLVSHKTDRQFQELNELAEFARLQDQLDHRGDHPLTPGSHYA
UniProt Q9H999: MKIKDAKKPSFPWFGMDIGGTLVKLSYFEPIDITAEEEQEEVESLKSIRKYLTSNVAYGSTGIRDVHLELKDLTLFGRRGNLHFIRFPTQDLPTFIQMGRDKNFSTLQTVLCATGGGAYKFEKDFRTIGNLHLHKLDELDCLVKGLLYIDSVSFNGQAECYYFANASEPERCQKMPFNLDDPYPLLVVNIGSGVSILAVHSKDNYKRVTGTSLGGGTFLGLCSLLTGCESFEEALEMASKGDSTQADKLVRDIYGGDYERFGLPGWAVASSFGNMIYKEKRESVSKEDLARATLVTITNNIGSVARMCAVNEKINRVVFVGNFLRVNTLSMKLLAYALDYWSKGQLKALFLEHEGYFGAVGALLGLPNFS
UniProt Q13177, whole entry, looked up: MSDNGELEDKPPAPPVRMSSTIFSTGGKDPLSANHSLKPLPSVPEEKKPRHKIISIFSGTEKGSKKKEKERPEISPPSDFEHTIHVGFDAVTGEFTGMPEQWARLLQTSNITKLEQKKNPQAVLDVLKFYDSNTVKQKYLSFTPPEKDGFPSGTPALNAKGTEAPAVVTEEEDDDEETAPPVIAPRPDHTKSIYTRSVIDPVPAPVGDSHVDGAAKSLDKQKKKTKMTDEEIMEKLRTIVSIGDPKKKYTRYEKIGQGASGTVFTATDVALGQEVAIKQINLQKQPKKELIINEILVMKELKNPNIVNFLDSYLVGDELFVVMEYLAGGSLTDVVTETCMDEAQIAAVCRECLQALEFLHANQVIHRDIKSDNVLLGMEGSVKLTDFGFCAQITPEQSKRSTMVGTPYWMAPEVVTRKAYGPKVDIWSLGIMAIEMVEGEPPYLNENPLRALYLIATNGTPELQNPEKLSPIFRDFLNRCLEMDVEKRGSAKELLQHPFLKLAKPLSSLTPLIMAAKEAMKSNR

Columns and labels:
Assay in all cases: log2 fold change, soluble protein after heating vs DMSO (PISA); higher = thermal stabilisation; K562 lysate, 10 uM; active = over 0.2 and 3.5 SD of the protein, either way, in both replicates (recomputed)
[1] = compound: C=CC(=O)N1CCC[C@@H](n2nc(-c3ccc(Oc4ccccc4)cc3)c3c(N)ncnc32)C1 [ibrutinib]
Outline: (§1)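 Soluble protein was defined as the supernatant remaining after 21,000xg for 90 min, following pooling of heated aliquots and adjustment to 0.5% NP-40 at 4°C. Before that, crude K562 extract at 1 mg/mL protein in PBS pH 7.4 with 1 mM MgCl2 was treated with 10 μM compound for 30 min and heated for 3 min across 48°C-58°C. Quantification used TMTpro 16plex LC-MS/MS with channel sums equalised, and values are log-two fold changes in thermal stability relative to solvent controls from duplicates.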

[2] = compound: CC(=O)c1cnc2ccc(-c3cc(Cl)c(O)c(Cl)c3)nc2c1N[C@H]1CC[C@H](CN(C)C)CC1
Outline: as §1

[3] = compound: CC(C)(C)Cn1c(N)nc2ccc(-c3[nH]c(C(C)(C)C)nc3-c3ccc(F)cc3)nc21 [ralimetinib]
Outline: as §1

[4] = compound: CC(C)(O)CC(=O)NCCn1ccc2ncnc(Nc3ccc(Oc4cccc(C(F)(F)F)c4)c(Cl)c3)c21
Outline: as §1

[5] = compound: CC(C)C1=C2N=C(C=C(N2N=C1)NCC3=CC=CC=C3)NCCCCCCN
Outline: as §1

[6] = compound: CC1=C(C(CC(=O)N1)C2=CC=C(C=C2)C(F)(F)F)C(=O)NC3=C(C=C4C(=C3)C=NN4)F
Outline: as §1

[7] = compound: CC1=C(C2=C(C=C1)C(=O)C3=CC=CC=C3N2CCCN)C
Outline: as §1

[8] = compound: CC1=C(C=C(C=C1)NC(=O)C2=CC(=CC=C2)C(C)(C)C#N)NC3=CC4=C(C=C3)N=CN(C4=O)C
Outline: as §1

[9] = compound: CC1=C(C=C(C=C1)NC(=O)C2=CC(=CC=C2)N(C)C)NC(=O)C3=CC=C(C=C3)O
Outline: as §1

[10] = compound: CC1=CC=C(C=C1)SC2=C3C=C(SC3=CN=C2)C(=O)N
Outline: as §1

Measured: log2 fold change

NUP58 (UniProt Q9BVL2)
inactive: [1] 0.004 | [2] 0 | [3] -0.005 | [4] -0.047 | [5] -0.009 | [6] 0.052 | [7] 0.006 | [8] -0.058 | [9] -0.01 | [10] -0.022

NUP88 (UniProt Q99567)
inactive: [1] -0.022 | [2] -0.002 | [3] -0.032 | [4] -0.022 | [5] 0.031 | [6] 0.012 | [7] 0.036 | [8] -0.084 | [9] -0.036 | [10] -0.006

PAGE5 (UniProt Q96GU1)
inactive: [1] -0.05 | [2] -0.102 | [3] 0.045 | [4] 0.031 | [5] 0.018 | [6] -0.011 | [7] -0.02 | [8] 0.014 | [9] 0.029 | [10] 0.142

PACSIN1 (UniProt Q9BY11)
inactive: [1] -0.038 | [2] -0.011 | [3] 0.034 | [4] -0.009 | [5] 0.054 | [6] 0.115 | [7] -0.058 | [9] 0.051 | [10] -0.028

P2RX4 isoform 2 (UniProt Q99571)
inactive: [1] 0.027 | [2] 0.021 | [3] -0.053 | [4] -0.102 | [5] -0.094 | [7] -0.006 | [8] 0.03 | [9] -0.001 | [10] -0.151

OPHN1 (UniProt O60890)
inactive: [1] 0.056 | [2] -0.012 | [3] -0.175 | [4] -0.022 | [7] 0.024 | [9] 0.285 | [10] -0.093

NXT1 (UniProt Q9UKK6)
inactive: [1] -0.001 | [2] -0.059 | [3] 0.005 | [4] -0.114 | [5] 0.027 | [6] 0.075 | [9] 0.04 | [10] -0.107

PALM (UniProt O75781)
inactive: [1] 0.054 | [2] 0 | [5] -0.031 | [6] 0.011 | [7] -0.062 | [8] -0.037 | [10] 0.07

OTUB1 (UniProt Q96FW1)
inactive: [1] -0.005 | [2] -0.013 | [3] 0.021 | [4] -0.053 | [5] -0.008 | [6] -0.004 | [7] -0.009 | [8] -0.008 | [9] -0.012 | [10] 0.006

PABPC1 (UniProt H0YAR2)
inactive: [1] -0.207 | [2] -0.09 | [3] 0.049 | [4] -0.044 | [5] -0.02 | [6] -0.037 | [8] 0.048 | [9] 0.027 | [10] -0.009

P3H1 (UniProt Q32P28)
inactive: [1] -0.002 | [2] -0.006 | [3] 0.024 | [4] -0.004 | [5] -0.01 | [6] 0.021 | [7] -0.007 | [8] -0.03 | [9] -0.027 | [10] -0.003

NUS1 (UniProt Q96E22)
inactive: [1] 0.023 | [2] -0.035 | [3] 0 | [4] -0.014 | [5] 0.03 | [6] 0.029 | [7] 0.048 | [8] -0.06 | [9] 0.003 | [10] 0.007

OTULIN (UniProt Q96BN8)
inactive: [1] 0.014 | [2] 0.024 | [3] 0.031 | [4] 0.011 | [5] -0.02 | [6] 0.01 | [7] 0 | [8] 0.115 | [9] 0.013 | [10] -0.013

OSBPL9 isoform 2 (UniProt Q96SU4)
inactive: [1] -0.015 | [2] 0.01 | [3] -0.036 | [4] -0.006 | [5] -0.03 | [6] -0.012 | [7] 0.015 | [8] -0.006 | [9] 0.021 | [10] -0.049

OARD1 (UniProt Q9Y530)
inactive: [1] -0.013 | [2] 0.003 | [3] 0.003 | [4] 0.002 | [5] -0.01 | [6] -0.027 | [7] -0.046 | [8] 0.032 | [9] 0.035 | [10] 0.011

PABPN1 (UniProt Q86U42)
inactive: [1] 0.088 | [2] -0.085 | [3] 0.089 | [4] -0.045 | [6] 0.08 | [7] -0.083 | [8] 0.002 | [9] 0 | [10] 0.047

ODR4 (UniProt Q5SWX8)
inactive: [1] -0.051 | [2] -0.028 | [3] 0.054 | [4] 0.045 | [5] -0.107 | [6] 0.009 | [7] 0.023 | [8] 0.037 | [9] 0.035 | [10] -0.025

PAGE4 (UniProt O60829)
inactive: [1] 0.056 | [2] -0.029 | [3] 0.028 | [4] -0.077 | [5] 0.072 | [7] -0.014 | [8] 0.04 | [9] 0.078 | [10] 0.004

NUP42 (UniProt O15504)
inactive: [1] 0.027 | [2] 0.043 | [3] -0.025 | [4] -0.069 | [5] -0.087 | [6] -0.017 | [7] -0.094 | [8] 0.063 | [9] -0.119 | [10] -0.013

PAIP2 (UniProt Q9BPZ3)
inactive: [1] 0.145 | [2] 0.012 | [3] -0.05 | [4] -0.006 | [5] 0.006 | [6] 0.015 | [7] 0.028 | [8] 0.01 | [9] -0.003 | [10] -0.008

OCIAD1 (UniProt D6RF01)
inactive: [1] 0.523 | [2] -0.047 | [6] 0.295 | [10] 0.043

P4HA2 (UniProt O15460)
inactive: [1] -0.028 | [2] -0.059 | [3] 0.08 | [4] 0.024 | [5] -0.023 | [7] -0.001 | [8] -0.038 | [9] -0.009 | [10] -0.062

P2RY1 (UniProt P47900)
inactive: [1] -0.026 | [2] 0.102 | [3] -0.045 | [4] -0.107 | [5] -0.322 | [7] 0.064 | [9] -0.009 | [10] 0.058

PANK2 (UniProt Q9BZ23)
inactive: [1] -0.056 | [2] 0.001 | [3] -0.069 | [4] -0.047 | [6] -0.073 | [7] -0.126 | [8] -0.046 | [9] -0.002 | [10] 0.023

OSGEPL1 (UniProt Q9H4B0)
inactive: [1] -0.074 | [2] -0.057 | [8] 0.04 | [10] 0.124

ORAI1 (UniProt Q96D31)
inactive: [1] -0.067 | [2] -0.029 | [3] -0.086 | [4] -0.043 | [5] -0.059 | [6] 0.056 | [8] -0.001 | [9] -0.005 | [10] 0.082

Seven consecutive records from above, quoted:
PAIP2 (UniProt Q9BPZ3)
inactive: [1] 0.145 | [2] 0.012 | [3] -0.05 | [4] -0.006 | [5] 0.006 | [6] 0.015 | [7] 0.028 | [8] 0.01 | [9] -0.003 | [10] -0.008

OCIAD1 (UniProt D6RF01)
inactive: [1] 0.523 | [2] -0.047 | [6] 0.295 | [10] 0.043

P4HA2 (UniProt O15460)
inactive: [1] -0.028 | [2] -0.059 | [3] 0.08 | [4] 0.024 | [5] -0.023 | [7] -0.001 | [8] -0.038 | [9] -0.009 | [10] -0.062

P2RY1 (UniProt P47900)
inactive: [1] -0.026 | [2] 0.102 | [3] -0.045 | [4] -0.107 | [5] -0.322 | [7] 0.064 | [9] -0.009 | [10] 0.058

PANK2 (UniProt Q9BZ23)
inactive: [1] -0.056 | [2] 0.001 | [3] -0.069 | [4] -0.047 | [6] -0.073 | [7] -0.126 | [8] -0.046 | [9] -0.002 | [10] 0.023

OSGEPL1 (UniProt Q9H4B0)
inactive: [1] -0.074 | [2] -0.057 | [8] 0.04 | [10] 0.124

ORAI1 (UniProt Q96D31)
inactive: [1] -0.067 | [2] -0.029 | [3] -0.086 | [4] -0.043 | [5] -0.059 | [6] 0.056 | [8] -0.001 | [9] -0.005 | [10] 0.082

More records

OSBP (UniProt P22059)
inactive: [1] -0.007 | [2] 0.003 | [3] -0.019 | [4] -0.007 | [5] -0.19 | [6] 0.018 | [7] 0.04 | [8] -0.103 | [9] 0.011 | [10] -0.003

OPTN (UniProt Q96CV9)
inactive: [1] -0.028 | [2] 0.029 | [3] 0.012 | [4] -0.001 | [5] -0.06 | [6] -0.008 | [7] -0.027 | [8] -0.001 | [9] -0.008 | [10] 0.018

NVL (UniProt O15381)
inactive: [1] 0.067 | [2] -0.042 | [3] -0.024 | [4] 0 | [5] -0.005 | [6] -0.028 | [7] 0.014 | [8] -0.042 | [9] -0.013 | [10] 0.034

NUP35 (UniProt Q8NFH5)
inactive: [1] -0.021 | [2] -0.049 | [3] 0.046 | [4] -0.174 | [6] -0.038 | [8] -0.005 | [9] 0.1 | [10] 0.139

PACSIN3 (UniProt Q9UKS6)
inactive: [1] 0.104 | [2] 0.134 | [3] -0.04 | [4] -0.127 | [5] 0.083 | [6] 0.003 | [7] -0.029 | [8] 0.01 | [9] 0.002 | [10] 0.162

PANK3 (UniProt Q9H999)
inactive: [1] 0.162 | [2] -0.168 | [3] 0.139 | [4] -0.068 | [5] -0.075 | [6] 0.01 | [7] -0.174 | [9] -0.09 | [10] -0.079

PAK2 (UniProt Q13177)
inactive: [1] -0.007 | [2] -0.001 | [3] -0.033 | [4] 0.012 | [5] -0.003 | [6] -0.026 | [7] -0.004 | [8] -0.01 | [9] -0.006 | [10] 0.002
